Source: ChEMBL document CHEMBL3988442, “University of Dundee, Small-Polar-MMV Screening Library” (2021).

By UniProt entry, the sequences of proteins in these tests, tags left out. Residues count along the entry.
UniProt P9WFT3, whole entry: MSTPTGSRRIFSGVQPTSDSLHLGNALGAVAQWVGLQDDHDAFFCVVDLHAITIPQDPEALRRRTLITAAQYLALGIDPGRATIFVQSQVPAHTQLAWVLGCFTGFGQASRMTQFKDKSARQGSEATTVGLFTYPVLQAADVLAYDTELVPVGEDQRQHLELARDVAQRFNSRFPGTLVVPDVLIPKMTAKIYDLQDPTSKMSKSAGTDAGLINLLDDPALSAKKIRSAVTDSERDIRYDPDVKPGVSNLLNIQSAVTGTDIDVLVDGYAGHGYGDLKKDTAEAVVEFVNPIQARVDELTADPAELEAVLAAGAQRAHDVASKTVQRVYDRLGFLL
UniProt I6X8D2, whole entry: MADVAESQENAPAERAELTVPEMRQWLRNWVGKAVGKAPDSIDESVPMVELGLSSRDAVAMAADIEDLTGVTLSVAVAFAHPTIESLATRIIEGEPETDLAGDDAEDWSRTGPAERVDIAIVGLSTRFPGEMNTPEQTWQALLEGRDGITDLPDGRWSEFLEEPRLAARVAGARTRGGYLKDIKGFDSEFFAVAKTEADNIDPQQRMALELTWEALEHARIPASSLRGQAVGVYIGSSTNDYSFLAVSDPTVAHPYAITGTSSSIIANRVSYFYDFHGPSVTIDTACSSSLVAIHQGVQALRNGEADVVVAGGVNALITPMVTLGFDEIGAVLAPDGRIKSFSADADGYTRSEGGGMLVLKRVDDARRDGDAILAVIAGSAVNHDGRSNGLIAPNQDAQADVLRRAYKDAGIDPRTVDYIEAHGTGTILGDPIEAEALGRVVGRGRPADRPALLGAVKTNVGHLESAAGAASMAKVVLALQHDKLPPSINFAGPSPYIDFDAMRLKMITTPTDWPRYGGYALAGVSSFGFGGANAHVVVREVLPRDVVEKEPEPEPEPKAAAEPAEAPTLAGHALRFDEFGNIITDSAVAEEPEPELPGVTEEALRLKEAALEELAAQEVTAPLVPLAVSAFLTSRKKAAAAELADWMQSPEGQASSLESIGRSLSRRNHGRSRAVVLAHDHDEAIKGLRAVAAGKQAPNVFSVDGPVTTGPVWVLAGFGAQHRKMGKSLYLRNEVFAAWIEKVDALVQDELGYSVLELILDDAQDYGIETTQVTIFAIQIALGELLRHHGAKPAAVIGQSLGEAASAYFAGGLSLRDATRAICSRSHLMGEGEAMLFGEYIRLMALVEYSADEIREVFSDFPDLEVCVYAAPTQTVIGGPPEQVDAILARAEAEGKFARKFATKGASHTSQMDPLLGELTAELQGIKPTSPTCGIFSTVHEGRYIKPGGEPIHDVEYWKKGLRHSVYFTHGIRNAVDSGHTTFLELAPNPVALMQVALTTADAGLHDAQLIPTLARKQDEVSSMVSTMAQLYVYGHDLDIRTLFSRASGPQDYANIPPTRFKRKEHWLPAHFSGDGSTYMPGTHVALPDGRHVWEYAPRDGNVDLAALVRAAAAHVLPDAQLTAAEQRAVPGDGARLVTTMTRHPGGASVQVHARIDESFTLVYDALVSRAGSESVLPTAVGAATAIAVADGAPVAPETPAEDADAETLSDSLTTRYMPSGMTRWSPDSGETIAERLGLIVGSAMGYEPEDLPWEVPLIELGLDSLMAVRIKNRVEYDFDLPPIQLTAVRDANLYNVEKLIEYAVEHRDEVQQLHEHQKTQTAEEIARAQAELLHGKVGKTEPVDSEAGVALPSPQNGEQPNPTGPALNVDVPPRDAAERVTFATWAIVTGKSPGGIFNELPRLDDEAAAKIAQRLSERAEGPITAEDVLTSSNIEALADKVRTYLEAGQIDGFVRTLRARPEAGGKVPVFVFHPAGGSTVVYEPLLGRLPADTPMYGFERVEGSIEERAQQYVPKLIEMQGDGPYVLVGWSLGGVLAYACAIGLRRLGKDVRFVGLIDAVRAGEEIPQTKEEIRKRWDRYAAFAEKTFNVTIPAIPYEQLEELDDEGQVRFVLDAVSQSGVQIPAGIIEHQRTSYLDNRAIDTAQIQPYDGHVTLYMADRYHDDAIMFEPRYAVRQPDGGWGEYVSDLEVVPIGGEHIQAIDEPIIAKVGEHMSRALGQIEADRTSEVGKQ
UniProt Q4DA54, 1-478: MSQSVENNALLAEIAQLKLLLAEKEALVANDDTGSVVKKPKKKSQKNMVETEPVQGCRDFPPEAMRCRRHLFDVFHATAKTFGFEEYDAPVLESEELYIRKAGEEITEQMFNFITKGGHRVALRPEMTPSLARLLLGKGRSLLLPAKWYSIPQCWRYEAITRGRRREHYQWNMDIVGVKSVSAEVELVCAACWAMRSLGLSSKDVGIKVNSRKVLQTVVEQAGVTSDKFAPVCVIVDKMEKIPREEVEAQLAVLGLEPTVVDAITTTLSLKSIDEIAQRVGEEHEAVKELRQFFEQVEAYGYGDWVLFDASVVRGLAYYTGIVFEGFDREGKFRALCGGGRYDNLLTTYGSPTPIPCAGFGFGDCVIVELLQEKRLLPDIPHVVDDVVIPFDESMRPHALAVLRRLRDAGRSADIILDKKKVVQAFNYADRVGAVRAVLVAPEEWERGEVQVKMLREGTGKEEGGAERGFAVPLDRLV

MtTrpRS: 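Tryptophan-tRNA ligase, Mycobacterium tuberculosis (UniProt P9WFT3). Enzyme assay of tryptophanyl-tRNA synthetase; the read-out is not stated. Concentration: 10 µM. Direction is not recorded; retested compounds ran higher, which suggests that high means inhibition. About 65,000 compounds were tested under these conditions; 0.098% (about 64) showed 50% or more at least once.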
Leishmania in macrophages: 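Cell assay of Leishmania donovani living inside macrophages; the read-out is not stated. Concentration: 30 µM. The record gives no direction; compounds that gave an IC50 in retests scored well above the rest, so higher reads as stronger inhibition. Size under these conditions: about 69,000 compounds, about 1,000 of them at 50% or above in at least one test.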
Pks13 thioesterase: 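Polyketide synthase Pks13, Mycobacterium tuberculosis (UniProt I6X8D2). Enzyme assay of the thioesterase domain of polyketide synthase 13; the read-out is not stated. Compounds at 30 µM. The record gives no direction; the compounds picked for IC50 retests had high values, so higher reads as stronger inhibition. About 67,000 compounds were tested under these conditions; 0.46% (about 300) showed 50% or more at least once.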
TcHisRS: 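Enzyme assay of histidyl-tRNA synthetase; the read-out is not stated. Target: Histidine-tRNA ligase, Trypanosoma cruzi CL Brener (UniProt Q4DA54). Concentration: 30 µM. The record gives no direction; compounds that gave an IC50 in retests scored well above the rest, so higher reads as stronger inhibition. Size under these conditions: about 69,000 compounds, about 31 of them at 50% or above in at least one test.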

The filed quantity is “Percent Effect” (%). The controls that fix the scale are not given in the record; negative values are as filed. Compounds were drawn at random from those tested, without regard to their results. A dash means the value is not listed here; it may have been measured.

| # | compound | MtTrpRS | Leishmania in macrophages | Pks13 thioesterase | TcHisRS |
|---|---|---|---|---|---|
| 1 | `O=C(O)C(F)(F)F.[H][C@@]12CCN(C3CCOCC3)C[C@]1([H])O[C@H](C(=O)N1CCCC1)C2` | - | -9.827 | - | - |
| 2 | `CC(=O)N1CCn2c(-c3cccc(F)c3)cnc2C12CCNCC2.O=C(O)C(F)(F)F` | - | -6.012 | - | - |
| 3 | `CC(C)(C)C(=O)NCCC(=O)Nc1cc(C#N)cn1C(C)(C)C` | -5.688 | -7.011 | -2.027 | 7.955 |
| 4 | `COc1ccc2ncn(Cc3ncc[nH]3)c(=O)c2c1` | 2.142 | -2.365 | -3.897 | 6.468 |
| 5 | `Cc1noc(C)c1CN1CCO[C@H]2CN(CC3CC3)C[C@H]21` | -0.4794 | - | -5.13 | -1.639 |
| 6 | `COc1cc(N2C[C@H]3CN(C(=O)c4cnccn4)C[C@H]3C2)ncn1` | -4.499 | - | -30.39 | 3.279 |
| 7 | `CCN1CC(CN(C)Cc2nc(-c3ccc(C)o3)oc2C)CC1=O` (stereo unspecified) | 1.909 | 59.94 | -2.446 | 8 |
| 8 | `CS(=O)(=O)Cc1ccccc1NCc1cc(Cl)ccc1Cl` | 4.224 | 50.41 | -15.21 | 0.6494 |
| 9 | `Cc1c(O)oc(-c2ccc(Br)cc2)nc1=O` | 4.75 | -16.81 | 7.361 | -4.301 |
| 10 | `O=C(O)C(F)(F)F.[H][C@]12CCC[C@@H](CNc3nccn3C)[C@@]1([H])CN(Cc1cnn(C)c1)C2` | - | 15.5 | - | - |
| 11 | `O=C(NCc1cc2n(n1)CCCN(Cc1ccc(Cl)s1)C2)C1CCC1` | 1.377 | 19.18 | - | -3.518 |
| 12 | `COc1cc2c(cc1OC)S(=O)(=O)N(Cc1ccc(C)cc1)C2=O` | 1.858 | 29.55 | -40.63 | -2.632 |
| 13 | `NC(=O)N1CCCN(CCc2nc(-c3cccc(Cl)c3)no2)CC1` | -1.421 | -5.517 | 55.5 | 4.712 |
| 14 | `Cc1ccc(C)n1C(C)C(=O)N1CCCN(Cc2cscn2)CC1` (stereo unspecified) | -8.008 | 15.63 | -13.61 | 16.47 |
| 15 | `Cn1nc(CN2CCCC2)c2c1CN(CC1CC1)CC2` | - | - | 6.197 | 5.556 |
| 16 | `CC(C)(N)CNS(=O)(=O)Cc1cccc2cccnc12.Cl` | - | 17.76 | - | - |
| 17 | `COc1ccc(CNc2c(N3CCN(C(C)=O)CC3)c(=O)c2=O)cc1` | 2.925 | 6.483 | -0.5762 | 9.278 |
| 18 | `CCC(C)N(CC)C(=O)c1ccc2[nH]nnc2c1` (stereo unspecified) | 5.032 | -13.6 | - | 14.14 |
| 19 | `O=C(O)C(F)(F)F.O=C(c1ccco1)N1CCCC12CCN(c1ncccn1)CC2` | - | 7.591 | - | - |
| 20 | `CC(C)NC(=O)C1CN(C(=O)N(C)C)CC12CCOCC2` (stereo unspecified) | - | 28.7 | -14.08 | 4.42 |
| 21 | `Cc1ccccc1C(C(=O)N(Cc1cnn(C)c1)CC(C)C)N(C)C` (stereo unspecified) | -0.09099 | 9.94 | -22.73 | 10.64 |
| 22 | `COc1cc(C(=O)N2CCCC(CNS(C)(=O)=O)C2)cc(OC)c1C` (stereo unspecified) | -0.2347 | 16.86 | 33.21 | -2.256 |
| 23 | `NC(=O)c1cc(C2CCCN(C(=O)CCc3cscn3)C2)n[nH]1` (stereo unspecified) | 0.2398 | 21.7 | 16.32 | 1.527 |
| 24 | `Cc1cccc(CNC(=O)Nc2ccc3c(c2)CCCC(=O)N3)c1` | -2.917 | -0.5016 | -52.47 | 4.712 |
| 25 | `c1ncn(CC2CN(Cc3nc(C4CC4)no3)CCO2)n1` (stereo unspecified) | 1.948 | -11.77 | -18.2 | -0.5848 |
| 26 | `O=C1C[C@H]2CC[C@@H](CN1)N2C(=O)CCc1ccccc1` | -4.542 | - | -13.21 | 6.468 |
| 27 | `N#Cc1cccc(CN2CC[C@@H]3[C@@H]2CC(=O)N3Cc2cccnc2)c1` | 1.057 | - | -20.81 | 3.825 |
| 28 | `CN1CCN(Cc2ccccc2Oc2cncc(C(N)=O)n2)CC1` | 1.544 | 16.75 | -33.47 | 5.556 |
| 29 | `Cc1cnn(CC2CN(Cc3noc(C4CC4)n3)CCO2)c1` (stereo unspecified) | -3.115 | -22.28 | -23.57 | 1.153 |
| 30 | `CN(Cc1ccco1)C(=O)C1=NN(C)C(=O)CC1` | -3.946 | -20.04 | -7.573 | 1.005 |
| 31 | `COc1cccc(C2CC(=O)Nc3nc(N4CCOCC4)sc32)c1OC` (stereo unspecified) | -0.5297 | 6.19 | -56.25 | 65.22 |
| 32 | `O=C(c1ccncc1)N1C[C@@H]2CCN(c3cccnc3)C[C@@H]2C1` | -3.374 | - | -10.19 | 8.867 |
| 33 | `CC(C)c1ccc(C(C)N2CCCN(C(N)=O)CC2)cc1` (stereo unspecified) | 1.25 | -0.8667 | -4.38 | 5.699 |
| 34 | `CCCS(=O)(=O)CC(=O)N1CCN(CC2CC2)c2ccccc21` | -0.892 | 3.775 | -13.72 | 7.937 |
| 35 | `O=C(O)c1ccc(Cc2cccc(F)c2)nc1` | -5.23 | -3.805 | 6.504 | 7.895 |